Measured values: the odorant receptor screen of Mainland et al. (2015)
Several values for one entry are separate records, joined by “and”; a condition that tells them apart may be missing. Identical values can stand only once. Some of the results follow. Each value is one well over the wells without odorant, computed here; the data are noisy.

Key:
Assay in all cases: odorant receptor activation (CRE luciferase / Renilla) (fold of no-odor wells); higher = more activation
Conditions in all cases: 100 µM
OR10C1 clone 1065 = system: OR10C1 clone 1065
OR10G3 S73G clone 1272 = system: OR10G3 S73G clone 1272
[1] = system: OR10G4 A9V/M134V/V195E/R235G/K295Q clone 1119
OR10G6 clone 1108 = system: OR10G6 clone 1108
OR10G7 clone 1589 = system: OR10G7 clone 1589
OR10G8 clone 1396 = system: OR10G8 clone 1396
[2] = system: OR10G9 A90T/M134V clone 1192
OR10H1 clone 1291 = system: OR10H1 clone 1291
OR10H2 L40Q clone 1461 = system: OR10H2 L40Q clone 1461
OR10H3 clone 1525 = system: OR10H3 clone 1525
OR10H5 A224D clone 1294 = system: OR10H5 A224D clone 1294
OR10J1 clone 1711 = system: OR10J1 clone 1711
OR10J3 clone 1458 = system: OR10J3 clone 1458
OR10J5 R233W clone 1410 = system: OR10J5 R233W clone 1410
OR10J5 clone 1037 = system: OR10J5 clone 1037
OR10K1 clone 1024 = system: OR10K1 clone 1024
OR10K2 clone 1040 = system: OR10K2 clone 1040
OR10P1 clone 1254 = system: OR10P1 clone 1254
OR10Q1 clone 1202 = system: OR10Q1 clone 1202
[3] = system: OR10R2 A191T/E216G/L239F clone 1304

Compound | odorant receptor activation (OR10C1 clone 1065) | odorant receptor activation (OR10G3 S73G clone 1272) | odorant receptor activation [1] | odorant receptor activation (OR10G6 clone 1108) | odorant receptor activation (OR10G7 clone 1589) | odorant receptor activation (OR10G8 clone 1396) | odorant receptor activation [2] | odorant receptor activation (OR10H1 clone 1291) | odorant receptor activation (OR10H2 L40Q clone 1461) | odorant receptor activation (OR10H3 clone 1525) | odorant receptor activation (OR10H5 A224D clone 1294) | odorant receptor activation (OR10J1 clone 1711) | odorant receptor activation (OR10J3 clone 1458) | odorant receptor activation (OR10J5 R233W clone 1410) | odorant receptor activation (OR10J5 clone 1037) | odorant receptor activation (OR10K1 clone 1024) | odorant receptor activation (OR10K2 clone 1040) | odorant receptor activation (OR10P1 clone 1254) | odorant receptor activation (OR10Q1 clone 1202) | odorant receptor activation [3]
CCCCCCCCOC(C)=O [octyl acetate] | 0.837 | 1.42 | 0.856 | 1.1 | 10 | 0.996 | 1.17 | 0.938 | 0.915 | 0.911 | 1.09 | 0.986 | 0.917 | 1.17 | 0.997 | 1.07 | 0.968 | 0.904 | 0.863 | 1.09
CCCCCOC(C)=O [n-amyl acetate] | 1.19 | 0.518 | 1.12 | 2.06 | 1.15 | 0.81 | 0.632 | 0.677 | 0.611 and 0.943 | 1.43 and 0.749 | 0.518 | 0.867 | 1.12 | 0.681 | 1.01 | 1.72 | 1.56 | 0.526 | 0.607 | 0.643
C=CC(C)(O)CCC=C(C)C (stereo not given) [linalool] | 1.06 | 1.01 | 1 | 1.18 | 4.24 | 0.943 | 0.971 | 0.907 | 0.99 | 0.927 | 0.738 | 0.907 | 1.16 | 1.16 | 1.51 | 1.43 | 1.04 | 0.927 | 0.947 | 0.936
CC12CCC(C1)C(C)(C)C2=O (stereo not given) [fenchone] | 1.13 | 0.984 | 1.01 | 1.16 | 3.2 | 1.08 | 0.764 | 0.849 | 1.23 | 1.06 | 0.84 | 0.589 | 0.798 | 0.923 | 0.902 | 1.19 | 1.1 | 1.04 | 0.928 | 0.881
COc1ccccc1O [guaiacol] | 9.03 | 1.27 and 1.15 | 1.93 | 2.03 | 8.59 | 0.67 | 1.67 | 1.04 and 0.884 | 0.702 and 1.12 | 0.687 and 1.14 | 0.877 and 1.14 | 0.797 | 0.844 | 0.77 | 1.63 | 1.24 | 0.965 | 1.15 and 2.5 | 1.05 | 0.796 and 0.784
O=C1CCCCCCCCCCCCCCO1 [pentadecalactone] | 0.951 | 0.803 | 0.91 | 0.809 | 0.865 | 1.2 | 0.65 | 0.915 | 0.891 | 0.681 | 0.847 | 0.851 | 0.973 | 1.4 | 1.02 | 0.749 | 1.08 | 0.657 | 0.701 | 0.703
CC(C)=CCCC(C)=CC=O [citral] | 1.2 | 1.21 | 1.42 | 1.2 | 0.206 | 0.344 | 1.15 | 1.46 | 1.24 | 0.935 | 0.924 | 0.97 | 1.11 | 0.225 | 1.4 | 1.66 | 1.17 | 0.92 | 1.29 | 1.17
